According to patent US12624127B2, “Chitosan derivatives as antimicrobials and synergistic combinations thereof” (priority 2022, dated 2026):
At least one structure is not confirmed: it was looked up by name or label, or the drawing left a doubt. Some results were stated once for a whole list of compounds, not compound by compound.

What was measured:
[1] = test system: A. baumannii AB-1; test: Checkerboard synergy assay of 2,6-DAC with antibiotics; type: cell-based, Acinetobacter baumannii; conditions: for MIC of antibiotic combined with 2,6-DAC: 2,6-DAC at a combination concentration of 8 and 16 μg/mL
Experimental: 2,6-DAC was screened as a potentiating agent for synergistic combinations with antibiotics against both A. baumannii AB-1 and MRSA USA300. Before the synergy tests, the MIC values of antibiotics were tested against MDR A. baumannii AB-1 and MRSA USA300 by following the MIC determination protocol in Example 4. Then, the synergy of 2,6-DAC with antibiotics was determined.
Synergy was measured by time killing assay and checkerboard assay. Time killing assay was performed by following the protocol in Example 4. Checkerboard susceptibility assays to measure combinations of antimicrobials were performed in MHB at 37° C. as previously described (K. R. V. Thappeta et al., ACS Infect. Dis. 2020, 6, 1228-1237; and Z. Si et al., Angew. Chem. Int. Ed. 2020, 59, 6819-6826). The fractional inhibitory concentration (FIC) indices were calculated according to the following formula: […]

[2] = test system: MDR A. baumannii (AB-1); test: Neutropenic lung infection model in BALB/c mice; type: in vivo, Acinetobacter baumannii; conditions: alone, H&E
[3] = test system: A. baumannii AB-1; test: Antibiotic accumulation assay (LC-MS); type: cell-based, Acinetobacter baumannii; conditions: rifampicin 2 μg/mL + 2,6-DAC 8 μg/mL, 3 h

Row | SMILES | MIC of antibiotic combined with 2,6-DAC [1] [µg/mL] | Histology of lung, single agent (in words) [2] | Antibiotic concentration inside bacteria, combination vs antibiotic alone [3] | Synergy with 2,6-DAC (in words) [1]
1 | NCC[C@H](O)C(=O)N[C@@H]1C[C@H](N)[C@@H](O[C@H]2O[C@H](CN)[C@@H](O)[C@H](O)[C@H]2O)[C@H](O)[C@H]1O[C@H]1O[C@H](CO)[C@@H](O)[C@H](N)[C@H]1O [Amikacin] | 1 to 2 |  |  | 
2 | CO[C@H]1/C=C/O[C@@]2(C)Oc3c(C)c(O)c4c(O)c(c(/C=N/N5CCN(C)CC5)c(O)c4c3C2=O)NC(=O)/C(C)=C\C=C\[C@H](C)[C@H](O)[C@@H](C)[C@@H](O)[C@@H](C)[C@H](OC(C)=O)[C@@H]1C [Rifampicin] |  | partially alleviated these abnormalities | significantly higher | synergistic activity
3 | NC[C@H]1O[C@H](O[C@H]2[C@H](O)[C@@H](O[C@H]3O[C@H](CO)[C@@H](O)[C@H](N)[C@H]3O)[C@H](N)C[C@@H]2N)[C@H](N)C[C@@H]1O [Tobramycin] | 1 to 2 |  |  | 
